Results are given in words; binding and its absence hold for the method and conditions named. For some assays here: In cells and extracts the contact can be indirect. Some entries that bind do so weakly or less than the wild type. For some assays here: Sequences can lack the tags named with a protein.
Tests used:
[1] = target: T1, TXNIP (expressed from a TXNIP plasmid in HEK293 cells) (UniProt Q9H3M7); assay: co-IP; HEK293 cells transfected with TXNIP plasmid; lysates immunoprecipitated with a TXNIP antibody; co-immunoprecipitated KLF4 detected with an anti-KLF4 antibody
T1 sequence: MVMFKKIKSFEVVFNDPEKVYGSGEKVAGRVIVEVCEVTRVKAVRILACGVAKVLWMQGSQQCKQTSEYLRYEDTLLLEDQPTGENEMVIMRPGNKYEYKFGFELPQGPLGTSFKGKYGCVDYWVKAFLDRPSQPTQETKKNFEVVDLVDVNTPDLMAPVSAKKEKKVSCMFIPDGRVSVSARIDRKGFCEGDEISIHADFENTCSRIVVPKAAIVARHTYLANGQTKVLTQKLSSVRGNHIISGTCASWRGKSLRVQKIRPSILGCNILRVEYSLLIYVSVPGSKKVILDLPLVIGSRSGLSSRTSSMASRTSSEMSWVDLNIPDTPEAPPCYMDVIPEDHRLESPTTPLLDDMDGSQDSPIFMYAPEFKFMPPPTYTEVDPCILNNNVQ

Sequences of proteins named here, by UniProt entry; tags and fusion partners are left off.
UniProt O43474: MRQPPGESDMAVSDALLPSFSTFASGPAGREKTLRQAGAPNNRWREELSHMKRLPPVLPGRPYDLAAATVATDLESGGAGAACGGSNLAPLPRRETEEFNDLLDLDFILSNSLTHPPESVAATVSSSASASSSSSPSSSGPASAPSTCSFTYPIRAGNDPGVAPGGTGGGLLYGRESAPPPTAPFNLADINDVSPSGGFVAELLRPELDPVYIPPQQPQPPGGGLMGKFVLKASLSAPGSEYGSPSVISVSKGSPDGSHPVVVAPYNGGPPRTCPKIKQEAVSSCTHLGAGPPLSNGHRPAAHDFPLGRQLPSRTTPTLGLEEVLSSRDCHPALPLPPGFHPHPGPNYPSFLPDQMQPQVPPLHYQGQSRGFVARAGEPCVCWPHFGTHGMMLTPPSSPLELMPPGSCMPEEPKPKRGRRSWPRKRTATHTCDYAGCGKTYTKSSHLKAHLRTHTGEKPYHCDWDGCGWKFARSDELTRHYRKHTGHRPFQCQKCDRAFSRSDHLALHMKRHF

[2] = target: T2, TXNIP-BD (TXNIP fused to the DNA-binding domain) (UniProt Q9H3M7); assay: two-hybrid; yeast two-hybrid; plasmids KLF4-AD and TXNIP-BD; growth on SD-Leu-Trp-His medium
T2 sequence: T1 sequence

Substance: KLF4 (co-immunoprecipitated from HEK293 lysate) (from UniProt O43474 1-513)
- binding [1]: binds

Substance: KLF4-AD (Krüppel-like factor 4 fused to the activation domain) (from UniProt O43474 1-513)
- binding [2]: binds
